In the data set the target is Transferrin receptor (TfR, TFRC) extracellular domain (UniProt P02786). Kind of data set: SELEX. As to conditions: 2'-F pyrimidines (2'F-U, 2'F-C); isolated after 12 rounds against His-TfR; Cy3-TR18 tested for internalization in HepG2; 30 mM Tris-HCl, 150 mM NaCl, 1.5 mM MgCl2, 2 mM DTT, 1% BSA, room temperature; purified recombinant protein; protein details: His-tag, Sino Biological 11020-HO7H; label: Cy3 for cell imaging; variant of TR14.

For at least one entry, the source does not settle the construct or the ends of the probe.

For “GGGAGACAAGAAUAAACGCUCAAUGCGUUUACGUUUAUUCACAUUUUUGAAUUGAGCAUGAGCUUCGACAGGAGGCUCACAACAGGC [TR18]”, the selection result is “selected”.

The record behind these values is US11236341.
